According to patent EP2402356A2, “Modified 2',3'-dideoxynucleosides for treatment infections caused by human immunodeficiency virus (HIV) multidrug resistant strains, method of their synthesis and the pharmaceutical agent containing these nucleosides” (Instytut Biochemii I Biofizyki Pan, priority 2010, dated 2012):
At least one compound was matched to its structure with a doubt left.

Experiments:
Format in all cases: cell-based, HIV-1
Wild type # = experiment: Antiviral activity (EC50) in CEMA and CEM-T4 cells; conditions: wild type # marked a,b = CEMA and CEM-T4 cells
[1] = system: NNRTI (RTMDR) 5 resistant; conditions: strain resistant to non-nucleoside HIV reverse transcriptase inhibitors (RTMDR); cell line not marked for this row
NRTI (RTMC) resistant = conditions: strain resistant to nucleoside HIV reverse transcriptase inhibitors (RTMC); cell line not marked for this row

Cc1cn([C@H]2C[C@H](N=[N+]=[N-])[C@@H](COP(=O)(O)O)O2)c(=O)[nH]c1=O [AZTM P, reference compound]
EC50 (Wild type #): ≤0.01 2 µM
EC50 [1]: ≤0.01 2 µM

Cc1cn([C@H]2C[C@H](F)[C@@H](COP(=O)(O)O)O2)c(=O)[nH]c1=O [FLT MP, reference compound]
EC50 [1]: ≤0.01 2 µM
EC50 (NRTI (RTMC) resistant): ≤0.01 2 µM
